In the supplement of paper PMC10849652:
This is one part of the list.

Chains of the proteins cited; added tags and fusions are not shown. Lines headed by an entry give the natural chain unless they say otherwise; changes in a name come on top.
UniProt Q9UNF0: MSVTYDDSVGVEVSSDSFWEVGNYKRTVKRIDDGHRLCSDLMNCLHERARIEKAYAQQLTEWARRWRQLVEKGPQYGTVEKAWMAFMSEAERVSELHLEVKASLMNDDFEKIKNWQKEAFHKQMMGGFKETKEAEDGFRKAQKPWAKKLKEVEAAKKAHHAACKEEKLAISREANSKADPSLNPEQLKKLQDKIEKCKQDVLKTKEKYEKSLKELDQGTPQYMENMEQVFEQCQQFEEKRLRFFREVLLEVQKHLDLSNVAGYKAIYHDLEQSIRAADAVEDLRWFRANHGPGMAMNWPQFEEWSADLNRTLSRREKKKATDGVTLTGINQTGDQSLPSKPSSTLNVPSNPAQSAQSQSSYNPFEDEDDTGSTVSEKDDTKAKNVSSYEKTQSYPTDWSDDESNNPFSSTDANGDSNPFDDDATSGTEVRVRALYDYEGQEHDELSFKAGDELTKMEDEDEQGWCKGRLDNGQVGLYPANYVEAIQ
UniProt Q9BPZ3: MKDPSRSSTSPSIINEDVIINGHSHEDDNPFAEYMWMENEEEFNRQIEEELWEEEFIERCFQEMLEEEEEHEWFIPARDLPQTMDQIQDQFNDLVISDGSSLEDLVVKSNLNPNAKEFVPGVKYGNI
UniProt Q7Z2X7: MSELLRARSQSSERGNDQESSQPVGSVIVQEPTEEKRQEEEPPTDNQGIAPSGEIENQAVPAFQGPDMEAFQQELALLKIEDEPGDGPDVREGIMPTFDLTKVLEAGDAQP
UniProt Q9UHG3: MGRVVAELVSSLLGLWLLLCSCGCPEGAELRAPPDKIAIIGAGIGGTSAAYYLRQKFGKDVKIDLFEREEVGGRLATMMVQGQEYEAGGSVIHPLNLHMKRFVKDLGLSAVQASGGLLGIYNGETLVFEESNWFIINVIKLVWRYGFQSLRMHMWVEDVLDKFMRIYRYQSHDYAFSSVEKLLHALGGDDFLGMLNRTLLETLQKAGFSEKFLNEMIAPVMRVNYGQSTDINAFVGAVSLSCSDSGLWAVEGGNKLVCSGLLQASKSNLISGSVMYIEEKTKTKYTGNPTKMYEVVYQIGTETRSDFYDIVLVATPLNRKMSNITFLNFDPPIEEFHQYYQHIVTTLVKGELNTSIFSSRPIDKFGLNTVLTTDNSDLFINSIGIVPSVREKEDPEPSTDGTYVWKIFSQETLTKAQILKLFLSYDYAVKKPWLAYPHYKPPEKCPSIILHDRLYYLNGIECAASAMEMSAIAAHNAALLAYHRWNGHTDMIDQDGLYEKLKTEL
UniProt O00330, whole entry, looked up: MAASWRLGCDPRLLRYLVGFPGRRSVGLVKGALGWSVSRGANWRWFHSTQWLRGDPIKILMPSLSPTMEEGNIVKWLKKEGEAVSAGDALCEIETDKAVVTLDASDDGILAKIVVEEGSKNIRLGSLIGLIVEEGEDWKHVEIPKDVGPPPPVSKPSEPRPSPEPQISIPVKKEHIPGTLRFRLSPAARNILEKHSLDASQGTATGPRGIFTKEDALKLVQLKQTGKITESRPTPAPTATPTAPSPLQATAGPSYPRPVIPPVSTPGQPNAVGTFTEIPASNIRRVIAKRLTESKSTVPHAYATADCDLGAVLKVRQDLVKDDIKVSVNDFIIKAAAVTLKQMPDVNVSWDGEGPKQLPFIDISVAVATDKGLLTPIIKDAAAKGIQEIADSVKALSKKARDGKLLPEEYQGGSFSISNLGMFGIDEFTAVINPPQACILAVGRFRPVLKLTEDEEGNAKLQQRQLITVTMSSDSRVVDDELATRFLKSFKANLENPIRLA
UniProt Q9HBH1: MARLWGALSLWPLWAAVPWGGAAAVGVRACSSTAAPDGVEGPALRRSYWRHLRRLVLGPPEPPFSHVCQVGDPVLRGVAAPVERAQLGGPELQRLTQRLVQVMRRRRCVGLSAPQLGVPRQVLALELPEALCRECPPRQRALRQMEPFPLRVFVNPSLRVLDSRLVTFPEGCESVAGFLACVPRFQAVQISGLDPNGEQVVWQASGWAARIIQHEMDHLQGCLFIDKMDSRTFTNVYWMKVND
UniProt Q8NCN5: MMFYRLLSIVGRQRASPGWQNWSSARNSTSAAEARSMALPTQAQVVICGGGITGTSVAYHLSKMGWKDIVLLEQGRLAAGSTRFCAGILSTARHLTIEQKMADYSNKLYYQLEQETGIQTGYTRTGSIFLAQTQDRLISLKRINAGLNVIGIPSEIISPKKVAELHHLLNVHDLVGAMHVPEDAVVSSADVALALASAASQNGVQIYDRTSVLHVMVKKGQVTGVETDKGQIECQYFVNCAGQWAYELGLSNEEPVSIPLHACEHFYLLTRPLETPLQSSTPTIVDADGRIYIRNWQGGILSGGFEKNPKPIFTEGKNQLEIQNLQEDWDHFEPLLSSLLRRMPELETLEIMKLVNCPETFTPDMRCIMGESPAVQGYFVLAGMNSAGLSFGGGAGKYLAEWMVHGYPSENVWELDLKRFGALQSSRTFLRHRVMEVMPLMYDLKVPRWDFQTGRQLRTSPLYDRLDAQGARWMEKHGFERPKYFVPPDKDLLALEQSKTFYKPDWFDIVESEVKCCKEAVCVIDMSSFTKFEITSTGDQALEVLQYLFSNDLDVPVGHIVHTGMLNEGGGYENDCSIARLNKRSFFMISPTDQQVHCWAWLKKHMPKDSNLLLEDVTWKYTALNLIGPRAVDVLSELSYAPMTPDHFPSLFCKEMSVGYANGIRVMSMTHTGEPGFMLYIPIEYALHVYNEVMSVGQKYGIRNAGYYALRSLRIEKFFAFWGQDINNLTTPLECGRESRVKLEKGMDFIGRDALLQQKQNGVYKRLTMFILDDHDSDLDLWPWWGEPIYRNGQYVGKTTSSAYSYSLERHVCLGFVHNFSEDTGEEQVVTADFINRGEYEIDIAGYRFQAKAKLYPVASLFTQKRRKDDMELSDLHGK
UniProt A6NDB9: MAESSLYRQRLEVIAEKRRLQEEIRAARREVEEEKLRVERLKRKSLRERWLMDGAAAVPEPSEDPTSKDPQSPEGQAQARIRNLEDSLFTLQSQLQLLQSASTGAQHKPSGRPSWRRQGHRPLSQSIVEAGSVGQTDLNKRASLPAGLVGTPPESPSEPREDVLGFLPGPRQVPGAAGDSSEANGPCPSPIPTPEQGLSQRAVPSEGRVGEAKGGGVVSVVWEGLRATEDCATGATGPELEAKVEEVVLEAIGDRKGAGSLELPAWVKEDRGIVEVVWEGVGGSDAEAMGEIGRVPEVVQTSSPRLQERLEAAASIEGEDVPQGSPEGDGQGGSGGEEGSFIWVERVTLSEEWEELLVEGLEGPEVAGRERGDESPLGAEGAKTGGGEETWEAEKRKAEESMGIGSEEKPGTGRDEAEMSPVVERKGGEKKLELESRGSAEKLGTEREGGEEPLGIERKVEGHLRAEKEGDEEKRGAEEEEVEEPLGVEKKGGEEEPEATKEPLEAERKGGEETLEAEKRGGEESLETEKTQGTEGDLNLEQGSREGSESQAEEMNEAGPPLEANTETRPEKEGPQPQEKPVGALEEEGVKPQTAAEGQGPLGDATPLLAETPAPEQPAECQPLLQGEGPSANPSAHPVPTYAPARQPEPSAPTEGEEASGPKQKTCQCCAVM
UniProt H7BZJ3: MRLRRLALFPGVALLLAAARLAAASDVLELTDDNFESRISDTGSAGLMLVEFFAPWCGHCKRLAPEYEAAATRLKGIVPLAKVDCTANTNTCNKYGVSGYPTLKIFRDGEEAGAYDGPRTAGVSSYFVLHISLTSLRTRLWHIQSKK
UniProt Q8NEN9: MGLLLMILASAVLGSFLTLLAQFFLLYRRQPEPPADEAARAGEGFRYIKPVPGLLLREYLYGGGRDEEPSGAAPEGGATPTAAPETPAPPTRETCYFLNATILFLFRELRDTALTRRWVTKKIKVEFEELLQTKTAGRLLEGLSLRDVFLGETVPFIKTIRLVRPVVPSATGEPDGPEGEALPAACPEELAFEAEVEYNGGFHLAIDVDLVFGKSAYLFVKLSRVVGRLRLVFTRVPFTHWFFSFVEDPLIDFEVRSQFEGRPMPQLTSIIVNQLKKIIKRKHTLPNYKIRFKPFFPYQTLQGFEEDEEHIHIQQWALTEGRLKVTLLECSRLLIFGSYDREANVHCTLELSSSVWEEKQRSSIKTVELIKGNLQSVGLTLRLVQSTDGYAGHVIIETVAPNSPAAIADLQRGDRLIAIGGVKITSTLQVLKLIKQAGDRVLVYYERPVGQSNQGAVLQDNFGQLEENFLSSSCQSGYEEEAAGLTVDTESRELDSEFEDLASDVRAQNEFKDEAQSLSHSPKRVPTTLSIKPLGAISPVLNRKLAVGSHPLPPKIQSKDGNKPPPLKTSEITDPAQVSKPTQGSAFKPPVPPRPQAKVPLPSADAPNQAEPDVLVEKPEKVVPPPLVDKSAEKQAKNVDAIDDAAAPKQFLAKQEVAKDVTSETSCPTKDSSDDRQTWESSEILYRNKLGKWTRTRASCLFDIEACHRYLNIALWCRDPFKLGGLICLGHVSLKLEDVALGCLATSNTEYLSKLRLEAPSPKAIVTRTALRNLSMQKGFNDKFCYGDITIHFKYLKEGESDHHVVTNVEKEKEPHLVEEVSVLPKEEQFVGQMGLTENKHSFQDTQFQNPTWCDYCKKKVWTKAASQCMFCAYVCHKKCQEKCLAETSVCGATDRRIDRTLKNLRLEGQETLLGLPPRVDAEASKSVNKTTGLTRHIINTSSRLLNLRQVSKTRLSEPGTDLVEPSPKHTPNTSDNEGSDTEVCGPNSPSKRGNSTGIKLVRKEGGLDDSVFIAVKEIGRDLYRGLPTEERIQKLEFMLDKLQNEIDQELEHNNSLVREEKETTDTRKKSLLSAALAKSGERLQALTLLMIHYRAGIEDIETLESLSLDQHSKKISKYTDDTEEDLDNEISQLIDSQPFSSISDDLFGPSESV
UniProt Q9H0N5: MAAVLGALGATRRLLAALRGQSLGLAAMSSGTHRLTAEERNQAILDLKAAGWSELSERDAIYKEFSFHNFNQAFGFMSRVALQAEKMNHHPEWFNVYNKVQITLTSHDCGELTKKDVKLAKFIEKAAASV
UniProt Q13442: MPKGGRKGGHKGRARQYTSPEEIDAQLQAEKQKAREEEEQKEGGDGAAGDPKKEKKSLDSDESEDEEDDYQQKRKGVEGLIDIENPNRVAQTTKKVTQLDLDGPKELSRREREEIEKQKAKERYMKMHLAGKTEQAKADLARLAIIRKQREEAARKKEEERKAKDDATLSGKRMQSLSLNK
UniProt O00623: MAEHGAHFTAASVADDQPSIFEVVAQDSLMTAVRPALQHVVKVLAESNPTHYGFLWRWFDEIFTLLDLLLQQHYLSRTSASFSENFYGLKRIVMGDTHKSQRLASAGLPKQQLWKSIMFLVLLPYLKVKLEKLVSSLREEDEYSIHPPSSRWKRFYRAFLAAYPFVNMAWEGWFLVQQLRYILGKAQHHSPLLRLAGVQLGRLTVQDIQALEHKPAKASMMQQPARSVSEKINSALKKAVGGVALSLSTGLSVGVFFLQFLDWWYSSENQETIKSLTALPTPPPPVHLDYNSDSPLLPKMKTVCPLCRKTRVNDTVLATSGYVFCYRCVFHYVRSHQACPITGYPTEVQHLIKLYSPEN
UniProt Q96GU1: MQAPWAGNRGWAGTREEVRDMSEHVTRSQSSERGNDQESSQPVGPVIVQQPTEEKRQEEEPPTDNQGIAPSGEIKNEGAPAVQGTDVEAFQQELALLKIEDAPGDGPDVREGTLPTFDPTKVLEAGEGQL
UniProt P29122: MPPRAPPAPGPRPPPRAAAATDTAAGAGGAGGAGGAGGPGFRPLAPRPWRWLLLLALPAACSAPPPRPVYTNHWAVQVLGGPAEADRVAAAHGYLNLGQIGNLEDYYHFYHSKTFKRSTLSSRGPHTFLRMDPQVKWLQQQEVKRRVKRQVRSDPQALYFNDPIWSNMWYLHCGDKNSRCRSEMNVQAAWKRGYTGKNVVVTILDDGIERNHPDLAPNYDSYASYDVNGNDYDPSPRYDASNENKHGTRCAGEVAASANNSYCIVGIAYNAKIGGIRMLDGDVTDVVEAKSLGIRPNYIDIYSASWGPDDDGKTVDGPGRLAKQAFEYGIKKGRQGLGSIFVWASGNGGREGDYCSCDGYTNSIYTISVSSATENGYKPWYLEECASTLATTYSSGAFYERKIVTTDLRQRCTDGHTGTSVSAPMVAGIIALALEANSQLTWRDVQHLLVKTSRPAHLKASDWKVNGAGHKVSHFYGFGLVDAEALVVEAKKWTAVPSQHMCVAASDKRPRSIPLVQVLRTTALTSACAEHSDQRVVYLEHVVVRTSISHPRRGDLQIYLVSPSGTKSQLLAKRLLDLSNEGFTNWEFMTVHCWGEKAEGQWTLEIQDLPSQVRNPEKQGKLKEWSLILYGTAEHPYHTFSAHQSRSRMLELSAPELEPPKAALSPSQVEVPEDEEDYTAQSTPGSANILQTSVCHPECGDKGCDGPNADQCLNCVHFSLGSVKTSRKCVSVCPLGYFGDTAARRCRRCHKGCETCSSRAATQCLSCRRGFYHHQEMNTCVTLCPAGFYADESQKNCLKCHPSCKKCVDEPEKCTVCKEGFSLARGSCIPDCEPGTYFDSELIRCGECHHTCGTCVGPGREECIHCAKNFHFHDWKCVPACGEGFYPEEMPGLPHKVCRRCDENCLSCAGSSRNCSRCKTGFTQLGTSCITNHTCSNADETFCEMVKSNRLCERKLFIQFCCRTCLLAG

How the values were obtained:
Test in all cases: log2 fold change, soluble protein after heating vs DMSO (PISA); higher = thermal stabilisation; K562 cells, 10 uM, 30 min; active = over 0.2 and 3.5 SD of the protein, either way, in both replicates (recomputed)
[1] = compound: NC(=O)Nc1cc(-c2cccc(F)c2)sc1C(=O)N[C@H]1CCCNC1
How it was run: (§1)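 For each measurement, 10 μM compound was applied for 30 min to K562 cells at 2×10^6 cells/mL. Aliquots were heated for 3 min across 48°C-58°C, pooled, and extracted in PBS with 0.5% NP-40 at 4°C; the supernatant after 21,000xg for 90 min was soluble protein. This was quantified by TMTpro 16plex LC-MS/MS with channel sums equalised, and thermal stability was reported relative to control samples from duplicates, on a log2 fold-change scale.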

[2] = compound: NC(=O)c1cnc(N[C@@H]2CCCC[C@@H]2N)nc1Nc1cccc(-n2nccn2)c1
How it was run: as §1

[3] = compound: NC1(c2ccc(-c3nc4ccn5c(=O)[nH]nc5c4cc3-c3ccccc3)cc2)CCC1
How it was run: as §1

[4] = compound: NCC(=O)Nc1ccc(-n2nc(C(F)(F)F)cc2-c2ccc3c(ccc4ccccc43)c2)cc1
How it was run: as §1

entinostat = compound: Nc1ccccc1NC(=O)c1ccc(CNC(=O)OCc2cccnc2)cc1 [entinostat]
How it was run: as §1

vorinostat = compound: O=C(CCCCCCC(=O)Nc1ccccc1)NO [vorinostat]
How it was run: as §1

citarinostat = compound: O=C(CCCCCCNC(=O)c1cnc(N(c2ccccc2)c2ccccc2Cl)nc1)NO [citarinostat]
How it was run: as §1

silmitasertib = compound: O=C(O)c1ccc2c(c1)nc(Nc1cccc(Cl)c1)c1ccncc12 [silmitasertib]
How it was run: as §1

[5] = compound: O=C1NC(=O)C(c2cnc3ccccn23)=C1c1cn2c3c(cc(F)cc13)CN(C(=O)N1CCCCC1)CC2
How it was run: as §1

[6] = compound: c1cc(OCCN2CCCCC2)cc(-c2n[nH]c3ccc(-c4nnc[nH]4)cc23)c1
How it was run: as §1

entospletinib = compound: c1cn2cc(-c3ccc4cn[nH]c4c3)nc(Nc3ccc(N4CCOCC4)cc3)c2n1 [entospletinib]
How it was run: as §1

Measured: log2 fold change

PACSIN2 (UniProt Q9UNF0)
inactive: [1] -0.054 | [2] -0.137 | [3] -0.139 | [4] -0.05 | entinostat 0.106 | vorinostat 0.127 | citarinostat 0.06 | silmitasertib -0.014 | [5] -0.015 | [6] -0.059 | entospletinib -0.01

PAIP1 (UniProt Q9H074)
inactive: [1] 0.008 | [2] -0.059 | [3] -0.062 | [4] -0.039 | entinostat -0.016 | vorinostat 0.054 | citarinostat 0.023 | silmitasertib 0.008 | [5] -0.012 | [6] -0.047 | entospletinib 0.028

PAIP2 (UniProt Q9BPZ3)
inactive: [1] 0.031 | [2] 0.139 | [3] -0.061 | [4] 0.031 | entinostat -0.056 | vorinostat 0.115 | citarinostat -0.007 | silmitasertib 0.038 | [5] 0.106 | [6] -0.08 | entospletinib 0.035

PBK (UniProt Q96KB5)
inactive: [1] -0.1 | [2] -0.045 | [3] -0.098 | [4] -0.088 | entinostat 0.095 | vorinostat 0.154 | citarinostat 0.119 | silmitasertib 0.157 | [5] 0.02 | [6] -0.011

PDCD11 (UniProt Q14690)
inactive: [1] -0.024 | [2] -0.153 | [3] -0.272 | [4] -0.237 | entinostat 0.015 | vorinostat 0.049 | citarinostat 0 | silmitasertib 0.058 | [5] 0.05 | [6] -0.135 | entospletinib -0.06

PAGE2 (UniProt Q7Z2X7)
inactive: [1] -0.008 | [2] 0.044 | [3] 0.038 | [4] 0.063 | entinostat 0.09 | vorinostat -0.095 | citarinostat 0 | silmitasertib 0.042 | [5] -0.124 | [6] -0.021 | entospletinib 0.05

PCMT1 isoform 2 (UniProt P22061)
inactive: [1] -0.019 | [2] -0.052 | [3] -0.043 | [4] -0.022 | entinostat 0.031 | vorinostat -0.035 | citarinostat 0.026 | silmitasertib -0.002 | [5] -0.018 | [6] 0.039 | entospletinib 0.057

PDCD10 (UniProt Q9BUL8)
inactive: [1] 0.103 | [2] 0.024 | [3] -0.124 | [4] -0.031 | entinostat -0.045 | vorinostat 0.01 | citarinostat 0.045 | silmitasertib 0.015 | [5] -0.053 | [6] -0.014 | entospletinib -0.053

PDXP (UniProt Q96GD0)
inactive: [1] 0.018 | [2] 0.027 | [3] -0.02 | [4] 0.05 | entinostat -0.039 | vorinostat -0.001 | citarinostat 0.005 | silmitasertib -0.012 | [5] -0.016 | [6] 0.012 | entospletinib -0.02

PCYOX1 (UniProt Q9UHG3)
inactive: [1] 0.084 | [2] 0 | [3] 0.018 | [4] -0.029 | entinostat 0.021 | vorinostat 0.012 | citarinostat 0.031 | silmitasertib 0 | [5] -0.022 | [6] -0.016 | entospletinib -0.092

PDHX (UniProt O00330)
inactive: [1] -0.013 | [2] 0.098 | [3] -0.034 | [4] 0.115 | entinostat -0.013 | vorinostat -0.053 | citarinostat -0.023 | silmitasertib 0.049 | [5] 0.048 | [6] -0.174 | entospletinib 0.019

PDF (UniProt Q9HBH1)
inactive: [1] -0.083 | [2] -0.027 | [3] -0.015 | [4] -0.028 | entinostat -0.051 | vorinostat 0.021 | citarinostat -0.009 | silmitasertib 0.018 | [5] 0.034 | [6] 0.045 | entospletinib 0.104

5 neighbouring records from above:
PAGE2 (UniProt Q7Z2X7)
inactive: [1] -0.008 | [2] 0.044 | [3] 0.038 | [4] 0.063 | entinostat 0.09 | vorinostat -0.095 | citarinostat 0 | silmitasertib 0.042 | [5] -0.124 | [6] -0.021 | entospletinib 0.05

PCMT1 isoform 2 (UniProt P22061)
inactive: [1] -0.019 | [2] -0.052 | [3] -0.043 | [4] -0.022 | entinostat 0.031 | vorinostat -0.035 | citarinostat 0.026 | silmitasertib -0.002 | [5] -0.018 | [6] 0.039 | entospletinib 0.057

PDCD10 (UniProt Q9BUL8)
inactive: [1] 0.103 | [2] 0.024 | [3] -0.124 | [4] -0.031 | entinostat -0.045 | vorinostat 0.01 | citarinostat 0.045 | silmitasertib 0.015 | [5] -0.053 | [6] -0.014 | entospletinib -0.053

PDXP (UniProt Q96GD0)
inactive: [1] 0.018 | [2] 0.027 | [3] -0.02 | [4] 0.05 | entinostat -0.039 | vorinostat -0.001 | citarinostat 0.005 | silmitasertib -0.012 | [5] -0.016 | [6] 0.012 | entospletinib -0.02

PCYOX1 (UniProt Q9UHG3)
inactive: [1] 0.084 | [2] 0 | [3] 0.018 | [4] -0.029 | entinostat 0.021 | vorinostat 0.012 | citarinostat 0.031 | silmitasertib 0 | [5] -0.022 | [6] -0.016 | entospletinib -0.092

The list goes on.

PAFAH1B1 (UniProt P43034)
inactive: [1] -0.01 | [2] -0.02 | [3] -0.004 | [4] -0.01 | entinostat -0.006 | vorinostat -0.005 | citarinostat 0.027 | silmitasertib -0.021 | [5] -0.03 | [6] -0.023 | entospletinib -0.016

PEX1 (UniProt O43933)
inactive: [1] -0.015 | [2] 0.009 | [3] -0.011 | [4] -0.018 | entinostat -0.009 | vorinostat 0.03 | citarinostat 0 | silmitasertib 0.021 | [5] -0.067 | [6] -0.061 | entospletinib 0.042

PANX1 (UniProt Q96RD7)
inactive: [1] 0.051 | [2] 0.011 | [3] 0 | [4] 0.024 | entinostat 0.022 | vorinostat -0.01 | citarinostat 0.031 | silmitasertib -0.012 | [5] 0.008 | [6] -0.088 | entospletinib 0.006

PDPR (UniProt Q8NCN5)
inactive: [1] -0.018 | [2] -0.094 | [3] -0.182 | [4] -0.014 | entinostat 0 | vorinostat -0.031 | citarinostat 0.006 | silmitasertib -0.01 | [5] -0.039 | [6] 0.047 | entospletinib 0.035

PAK2 (UniProt Q13177)
inactive: [1] -0.008 | [2] -0.064 | [3] 0.005 | [4] -0.004 | entinostat -0.019 | vorinostat -0.011 | citarinostat 0.025 | silmitasertib -0.001 | [5] -0.041 | [6] -0.019 | entospletinib 0.009

PALM3 (UniProt A6NDB9)
inactive: [1] -0.055 | [2] 0.09 | [3] 0.027 | [4] 0.16 | entinostat -0.133 | vorinostat -0.088 | citarinostat 0.095 | silmitasertib -0.053 | [5] -0.09 | [6] -0.042 | entospletinib -0.023

PDIA3 (UniProt H7BZJ3)
inactive: [1] -0.01 | [2] -0.032 | [3] -0.016 | [4] 0.141 | entinostat -0.039 | vorinostat -0.167 | citarinostat 0.014 | silmitasertib 0.068 | [5] -0.03 | [6] -0.076 | entospletinib 0.004

PDZD8 (UniProt Q8NEN9)
inactive: [1] 0.025 | [2] -0.072 | [3] -0.09 | [4] -0.047 | entinostat -0.003 | vorinostat 0.023 | citarinostat 0.029 | silmitasertib 0.099 | [5] -0.045 | [6] -0.056 | entospletinib -0.014

PCNP (UniProt Q8WW12)
inactive: [1] 0.022 | [2] 0 | [3] 0.048 | [4] 0.035 | entinostat -0.044 | vorinostat -0.05 | citarinostat -0.002 | silmitasertib 0.012 | [5] 0.003 | [6] -0.007 | entospletinib -0.01

PCBD2 (UniProt Q9H0N5)
inactive: [1] 0.008 | [2] -0.012 | [3] 0.011 | [4] -0.005 | entinostat 0.023 | vorinostat -0.009 | citarinostat -0.006 | silmitasertib 0.041 | [5] 0.005 | [6] 0.022 | entospletinib -0.004

PEPD (UniProt P12955)
inactive: [1] 0.023 | [2] -0.037 | [3] 0.003 | [4] -0.03 | entinostat -0.034 | vorinostat -0.019 | citarinostat 0.026 | silmitasertib -0.007 | [5] -0.021 | [6] 0.102 | entospletinib -0.029

PDAP1 (UniProt Q13442)
inactive: [1] 0.125 | [2] -0.03 | [3] 0.035 | [4] -0.01 | entinostat -0.013 | vorinostat -0.012 | citarinostat -0.029 | silmitasertib -0.045 | [5] 0.008 | [6] 0.039 | entospletinib 0.006

PAPOLA (UniProt P51003)
inactive: [1] -0.008 | [2] -0.048 | [3] -0.073 | [4] 0 | entinostat 0.016 | vorinostat 0.021 | citarinostat 0.02 | silmitasertib -0.013 | [5] -0.038 | [6] -0.012 | entospletinib -0.039

PEX12 (UniProt O00623)
inactive: [1] -0.101 | [2] -0.043 | [3] -0.02 | [4] -0.059 | entinostat -0.043 | vorinostat 0.006 | silmitasertib 0 | [5] -0.022

PAGE5 (UniProt Q96GU1)
inactive: [1] 0.074 | [2] 0.342 | [3] 0.045 | [4] 0.125 | entinostat 0.064 | vorinostat -0.173 | citarinostat 0.048 | silmitasertib -0.049 | [5] -0.228 | [6] -0.006 | entospletinib 0.059

PCSK6 isoform 7 (UniProt P29122)
inactive: [1] -0.248 | [2] -0.249 | [3] -0.134 | [4] -0.149 | entinostat -0.073 | vorinostat -0.125 | citarinostat 0.258 | silmitasertib 0.056 | [6] -0.174 | entospletinib -0.092
